# From the supplement of paper PMC8728848
# The list shows a part of the results.
# B1: NK2 (Sus scrofa) (peptide)
# chain: KILRGVCKKIMRTFLRRISKDILTGKK
# Tests used:
# Experiment in all cases: glycan array binding signal (z-score within array); higher = stronger binding
# Conditions in all cases: glycan notation: IUPAC condensed, linker removed
# [1] = target: GlcNAc(b1-2)[GlcNAc(b1-4)]Man(a1-3)[GlcNAc(b1-2)Man(a1-6)]Man(b1-4)GlcNAc(b1-4)GlcNAc
# Outline: (§1)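 Glycan array binding is given as a within-array Z-score, which can be read as non-binding when negative. The arrays, 3228 of them, came from the Consortium for Functional Glycomics database and were retained only where the protein sequence was available. Z-scores were averaged across arrays of the same protein sequence at different concentrations or buffers and across linkers.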
# [2] = target: GlcNAc(b1-2)[GlcNAc(b1-4)]Man(a1-3)[GlcNAc(b1-4)][GlcNAc(b1-2)Man(a1-6)]Man(b1-4)GlcNAc(b1-4)GlcNAc
# Outline: as §1
# [3] = target: GlcNAc(b1-2)[GlcNAc(b1-4)]Man(a1-3)[GlcNAc(b1-4)][GlcNAc(b1-2)[GlcNAc(b1-6)]Man(a1-6)]Man(b1-4)GlcNAc(b1-4)GlcNAc
# Outline: as §1
# [4] = target: GlcNAc(b1-2)[GlcNAc(b1-4)]Man(a1-3)[GlcNAc(b1-4)][GlcNAc(b1-2)[GlcNAc(b1-6)]Man(a1-6)]Man(b1-4)GlcNAc(b1-4)[Fuc(a1-6)]GlcNAc
# Outline: as §1
# [5] = target: GlcNAc(b1-2)[GlcNAc(b1-6)]Man(a1-6)[GlcNAc(b1-2)Man(a1-3)]Man(b1-4)GlcNAc(b1-4)GlcNAc
# Outline: as §1
# [6] = target: GlcNAc(b1-2)[GlcNAc(b1-6)]Man(a1-6)[GlcNAc(b1-2)Man(a1-3)]Man(b1-4)GlcNAc(b1-4)[Fuc(a1-6)]GlcNAc
# Outline: as §1
# [7] = target: GlcNAc(b1-2)[GlcNAc(b1-6)]Man(a1-6)[GlcNAc(b1-2)Man(a1-3)][GlcNAc(b1-4)]Man(b1-4)GlcNAc(b1-4)GlcNAc
# Outline: as §1
# [8] = target: GlcNAc(b1-2)[GlcNAc(b1-6)]Man(a1-6)[GlcNAc(b1-4)][GlcNAc(b1-2)Man(a1-3)]Man(b1-4)GlcNAc(b1-4)GlcNAc
# Outline: as §1
# [9] = target: GlcNAc(b1-3)Fuc
# Outline: as §1
# [10] = target: GlcNAc(b1-3)Gal
# Outline: as §1
# [11] = target: GlcNAc(b1-3)Gal(b1-3)GalNAc
# Outline: as §1
# [12] = target: GlcNAc(b1-3)Gal(b1-4)Glc
# Outline: as §1
# [13] = target: GlcNAc(b1-3)Gal(b1-4)GlcNAc
# Outline: as §1
# [14] = target: GlcNAc(b1-3)Gal(b1-4)GlcNAc(b1-2)Man(a1-3)[GlcNAc(b1-3)Gal(b1-4)GlcNAc(b1-2)Man(a1-6)]Man(b1-4)GlcNAc(b1-4)GlcNAc
# Outline: as §1
# [15] = target: GlcNAc(b1-3)Gal(b1-4)GlcNAc(b1-2)Man(a1-3)[GlcNAc(b1-3)Gal(b1-4)GlcNAc(b1-2)Man(a1-6)]Man(b1-4)GlcNAc(b1-4)[Fuc(a1-6)]GlcNAc
# Outline: as §1
# [16] = target: GlcNAc(b1-3)Gal(b1-4)GlcNAc(b1-2)[GlcNAc(b1-3)Gal(b1-4)GlcNAc(b1-6)]Man(a1-6)[GlcNAc(b1-3)Gal(b1-4)GlcNAc(b1-2)Man(a1-3)]Man(b1-4)GlcNAc(b1-4)GlcNAc
# Outline: as §1
# [17] = target: GlcNAc(b1-3)Gal(b1-4)GlcNAc(b1-3)Gal(b1-4)GlcNAc
# Outline: as §1
# [18] = target: GlcNAc(b1-3)Gal(b1-4)GlcNAc(b1-3)Gal(b1-4)GlcNAc(b1-2)Man(a1-3)[GlcNAc(b1-3)Gal(b1-4)GlcNAc(b1-3)Gal(b1-4)GlcNAc(b1-2)Man(a1-6)]Man(b1-4)GlcNAc(b1-4)GlcNAc
# Outline: as §1
# [19] = target: GlcNAc(b1-3)Gal(b1-4)GlcNAc(b1-3)Gal(b1-4)GlcNAc(b1-2)Man(a1-3)[GlcNAc(b1-3)Gal(b1-4)GlcNAc(b1-3)Gal(b1-4)GlcNAc(b1-2)Man(a1-6)]Man(b1-4)GlcNAc(b1-4)[Fuc(a1-6)]GlcNAc
# Outline: as §1
# [20] = target: GlcNAc(b1-3)Gal(b1-4)GlcNAc(b1-3)Gal(b1-4)GlcNAc(b1-2)[GlcNAc(b1-3)Gal(b1-4)GlcNAc(b1-3)Gal(b1-4)GlcNAc(b1-6)]Man(a1-6)[GlcNAc(b1-3)Gal(b1-4)GlcNAc(b1-3)Gal(b1-4)GlcNAc(b1-2)Man(a1-3)]Man(b1-4)GlcNAc(b1-4)[Fuc(a1-6)]GlcNAc
# Outline: as §1
# [21] = target: GlcNAc(b1-3)Gal(b1-4)GlcNAc(b1-3)Gal(b1-4)GlcNAc(b1-3)Gal(b1-4)GlcNAc(b1-2)Man(a1-3)[GlcNAc(b1-3)Gal(b1-4)GlcNAc(b1-3)Gal(b1-4)GlcNAc(b1-3)Gal(b1-4)GlcNAc(b1-2)Man(a1-6)]Man(b1-4)GlcNAc(b1-4)GlcNAc
# Outline: as §1
# [22] = target: GlcNAc(b1-3)Gal(b1-4)GlcNAc(b1-3)Gal(b1-4)GlcNAc(b1-3)Gal(b1-4)GlcNAc(b1-2)Man(a1-3)[GlcNAc(b1-3)Gal(b1-4)GlcNAc(b1-3)Gal(b1-4)GlcNAc(b1-3)Gal(b1-4)GlcNAc(b1-2)Man(a1-6)]Man(b1-4)GlcNAc(b1-4)[Fuc(a1-6)]GlcNAc
# Outline: as §1
# [23] = target: GlcNAc(b1-3)Gal(b1-4)GlcNAc(b1-3)Gal(b1-4)GlcNAc(b1-3)Gal(b1-4)GlcNAc(b1-2)[GlcNAc(b1-3)Gal(b1-4)GlcNAc(b1-3)Gal(b1-4)GlcNAc(b1-3)Gal(b1-4)GlcNAc(b1-6)]Man(a1-6)[GlcNAc(b1-3)Gal(b1-4)GlcNAc(b1-3)Gal(b1-4)GlcNAc(b1-3)Gal(b1-4)GlcNAc(b1-2)Man(a1-3)]Man(b1-4)GlcNAc(b1-4)[Fuc(a1-6)]GlcNAc
# Outline: as §1
# [24] = target: GlcNAc(b1-3)Gal(b1-4)GlcNAc(b1-3)Gal(b1-4)GlcNAc(b1-3)Gal(b1-4)GlcNAc(b1-3)Gal(b1-4)GlcNAc(b1-2)Man(a1-3)[GlcNAc(b1-3)Gal(b1-4)GlcNAc(b1-3)Gal(b1-4)GlcNAc(b1-3)Gal(b1-4)GlcNAc(b1-3)Gal(b1-4)GlcNAc(b1-2)Man(a1-6)]Man(b1-4)GlcNAc(b1-4)GlcNAc
# Outline: as §1
# [25] = target: GlcNAc(b1-3)Gal(b1-4)GlcNAc(b1-3)Gal(b1-4)GlcNAc(b1-3)Gal(b1-4)GlcNAc(b1-3)Gal(b1-4)GlcNAc(b1-2)Man(a1-3)[GlcNAc(b1-3)Gal(b1-4)GlcNAc(b1-3)Gal(b1-4)GlcNAc(b1-3)Gal(b1-4)GlcNAc(b1-3)Gal(b1-4)GlcNAc(b1-2)Man(a1-6)]Man(b1-4)GlcNAc(b1-4)[Fuc(a1-6)]GlcNAc
# Outline: as §1
# [26] = target: GlcNAc(b1-3)Gal(b1-4)GlcNAc(b1-3)Gal(b1-4)GlcNAc(b1-3)Gal(b1-4)GlcNAc(b1-3)Gal(b1-4)GlcNAc(b1-2)[GlcNAc(b1-3)Gal(b1-4)GlcNAc(b1-3)Gal(b1-4)GlcNAc(b1-3)Gal(b1-4)GlcNAc(b1-3)Gal(b1-4)GlcNAc(b1-6)]Man(a1-6)[GlcNAc(b1-3)Gal(b1-4)GlcNAc(b1-3)Gal(b1-4)GlcNAc(b1-3)Gal(b1-4)GlcNAc(b1-3)Gal(b1-4)GlcNAc(b1-2)Man(a1-3)]Man(b1-4)GlcNAc(b1-4)[Fuc(a1-6)]GlcNAc
# Outline: as §1
# [27] = target: GlcNAc(b1-3)Gal(b1-4)GlcNAc(b1-3)Gal(b1-4)GlcNAc(b1-3)GalNAc
# Outline: as §1
# [28] = target: GlcNAc(b1-3)Gal(b1-4)GlcNAc(b1-3)GalNAc
# Outline: as §1
# [29] = target: GlcNAc(b1-3)Gal(b1-4)GlcNAc(b1-3)[GlcNAc(b1-3)Gal(b1-4)GlcNAc(b1-3)]GalNAc
# Outline: as §1
# [30] = target: GlcNAc(b1-3)Gal(b1-4)GlcNAc(b1-6)[Gal(b1-3)]GalNAc
# Outline: as §1
# [31] = target: GlcNAc(b1-3)Gal(b1-4)GlcNAc(b1-6)[GlcNAc(b1-3)Gal(b1-3)]GalNAc
# Outline: as §1
# [32] = target: GlcNAc(b1-3)Gal(b1-4)GlcNAc(b1-6)[GlcNAc(b1-3)]Gal(b1-4)GlcNAc
# Outline: as §1
# [33] = target: GlcNAc(b1-3)GalNAc
# Outline: as §1
# [34] = target: GlcNAc(b1-3)Man
# Outline: as §1
# [35] = target: GlcNAc(b1-3)[GlcNAc(b1-4)][GlcNAc(b1-6)]GlcNAc
# Outline: as §1
# [36] = target: GlcNAc(b1-3)[GlcNAc(b1-6)]Gal(b1-4)GlcNAc
# Outline: as §1
# [37] = target: GlcNAc(b1-3)[GlcNAc(b1-6)]GalNAc
# Outline: as §1
# [38] = target: GlcNAc(b1-4)Gal(b1-4)GlcNAc
# Outline: as §1
# [39] = target: GlcNAc(b1-4)GlcNAc
# Outline: as §1
# [40] = target: GlcNAc(b1-4)GlcNAc(b1-4)GlcNAc
# Outline: as §1
# [41] = target: GlcNAc(b1-4)GlcNAc(b1-4)GlcNAc(b1-4)GlcNAc(b1-4)GlcNAc
# Outline: as §1
# [42] = target: GlcNAc(b1-4)GlcNAc(b1-4)GlcNAc(b1-4)GlcNAc(b1-4)GlcNAc(b1-4)GlcNAc
# Outline: as §1
# [43] = target: GlcNAc(b1-4)[GlcNAc(b1-6)]GalNAc
# Outline: as §1
# [44] = target: GlcNAc(b1-6)Gal(b1-4)GlcNAc
# Outline: as §1
# [45] = target: GlcNAc(b1-6)GalNAc
# Outline: as §1
# [46] = target: GlcNAc3Prop(b1-4)GlcNAc
# Outline: as §1
# [47] = target: GlcNAc6S(b1-3)Gal(b1-4)GlcNAc
# Outline: as §1
# [48] = target: Kdn(a2-3)Gal(b1-3)GalNAc
# Outline: as §1
# [49] = target: Kdn(a2-3)Gal(b1-3)GlcNAc
# Outline: as §1
# [50] = target: Kdn(a2-3)Gal(b1-4)Glc
# Outline: as §1
# [51] = target: Kdn(a2-3)Gal(b1-4)GlcNAc
# Outline: as §1
# [52] = target: Kdn(a2-3)Gal(b1-4)[Fuc(a1-3)]GlcNAc
# Outline: as §1
# [53] = target: Kdn(a2-6)Gal(b1-4)GlcNAc
# Outline: as §1
binder,measurement,setting,value
B1,glycan array binding signal (z-score),[1],0.141
same,glycan array binding signal (z-score),[2],-0.066
same,glycan array binding signal (z-score),[3],-0.022
same,glycan array binding signal (z-score),[4],-1.74
same,glycan array binding signal (z-score),[5],-0.087
same,glycan array binding signal (z-score),[6],-1.17
same,glycan array binding signal (z-score),[7],-0.487
same,glycan array binding signal (z-score),[8],0.098
same,glycan array binding signal (z-score),[9],-1.83
same,glycan array binding signal (z-score),[10],-0.759
same,glycan array binding signal (z-score),[11],-0.538
same,glycan array binding signal (z-score),[12],-0.244
same,glycan array binding signal (z-score),[13],-0.313
same,glycan array binding signal (z-score),[14],-0.892
same,glycan array binding signal (z-score),[15],1.49
same,glycan array binding signal (z-score),[16],0.504
same,glycan array binding signal (z-score),[17],-0.623
same,glycan array binding signal (z-score),[18],-0.06
same,glycan array binding signal (z-score),[19],0.832
same,glycan array binding signal (z-score),[20],-1.17
same,glycan array binding signal (z-score),[21],-0.358
same,glycan array binding signal (z-score),[22],-0.197
same,glycan array binding signal (z-score),[23],-0.914
same,glycan array binding signal (z-score),[24],-0.263
same,glycan array binding signal (z-score),[25],-0.965
same,glycan array binding signal (z-score),[26],0.559
same,glycan array binding signal (z-score),[27],-0.075
same,glycan array binding signal (z-score),[28],-0.331
same,glycan array binding signal (z-score),[29],0.417
same,glycan array binding signal (z-score),[30],1.7
same,glycan array binding signal (z-score),[31],0.144
same,glycan array binding signal (z-score),[32],0.081
same,glycan array binding signal (z-score),[33],-1.05
same,glycan array binding signal (z-score),[34],0.307
same,glycan array binding signal (z-score),[35],-0.366
same,glycan array binding signal (z-score),[36],-0.028
same,glycan array binding signal (z-score),[37],-0.326
same,glycan array binding signal (z-score),[38],0.592
same,glycan array binding signal (z-score),[39],0.043
same,glycan array binding signal (z-score),[40],-0.553
same,glycan array binding signal (z-score),[41],0.06
same,glycan array binding signal (z-score),[42],0.218
same,glycan array binding signal (z-score),[43],-1.1
same,glycan array binding signal (z-score),[44],-0.829
same,glycan array binding signal (z-score),[45],-0.221
same,glycan array binding signal (z-score),[46],0.373
same,glycan array binding signal (z-score),[47],-0.015
same,glycan array binding signal (z-score),[48],0.423
same,glycan array binding signal (z-score),[49],-0.323
same,glycan array binding signal (z-score),[50],0.105
same,glycan array binding signal (z-score),[51],-0.758
same,glycan array binding signal (z-score),[52],-0.406
same,glycan array binding signal (z-score),[53],0.619

# Copied from the results shown (2 entries):
binder,measurement,setting,value
B1,glycan array binding signal (z-score),[38],0.592
same,glycan array binding signal (z-score),[39],0.043
